Results on one substance are retold here after paper PMC11831767.

Amino acid sequences for entries named in this document (tags omitted). Residues count along the entry.
UniProt Q04206: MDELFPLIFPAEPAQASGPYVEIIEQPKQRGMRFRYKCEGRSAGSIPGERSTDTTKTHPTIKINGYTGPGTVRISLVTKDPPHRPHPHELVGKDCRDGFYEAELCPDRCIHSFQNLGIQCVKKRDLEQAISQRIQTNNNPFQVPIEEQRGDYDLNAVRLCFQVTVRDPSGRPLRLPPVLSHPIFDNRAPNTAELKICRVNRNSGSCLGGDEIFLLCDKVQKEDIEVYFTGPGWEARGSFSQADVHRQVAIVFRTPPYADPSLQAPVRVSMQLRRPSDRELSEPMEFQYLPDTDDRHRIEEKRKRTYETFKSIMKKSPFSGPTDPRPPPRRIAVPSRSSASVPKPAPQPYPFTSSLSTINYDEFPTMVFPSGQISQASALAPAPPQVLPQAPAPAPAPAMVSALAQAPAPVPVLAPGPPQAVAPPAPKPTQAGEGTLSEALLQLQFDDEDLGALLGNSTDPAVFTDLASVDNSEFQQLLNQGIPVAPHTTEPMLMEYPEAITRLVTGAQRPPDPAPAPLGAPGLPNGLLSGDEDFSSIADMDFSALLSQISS
UniProt P19838, residues 1-433: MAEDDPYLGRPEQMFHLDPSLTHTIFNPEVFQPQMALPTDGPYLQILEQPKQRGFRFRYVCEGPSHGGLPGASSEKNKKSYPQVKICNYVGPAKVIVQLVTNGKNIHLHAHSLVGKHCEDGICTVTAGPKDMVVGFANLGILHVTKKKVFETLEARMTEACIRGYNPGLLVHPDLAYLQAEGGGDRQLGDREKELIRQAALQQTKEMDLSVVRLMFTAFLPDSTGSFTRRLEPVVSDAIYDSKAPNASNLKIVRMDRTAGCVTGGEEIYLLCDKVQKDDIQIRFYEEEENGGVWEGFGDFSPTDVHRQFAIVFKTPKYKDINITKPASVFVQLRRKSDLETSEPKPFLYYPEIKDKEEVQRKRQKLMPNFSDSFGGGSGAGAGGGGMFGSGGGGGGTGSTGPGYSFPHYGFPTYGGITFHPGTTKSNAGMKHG

The target in this experiment is His-tagged p65, full length (human (amplified from 293T cells)) (UniProt Q04206). The experiment can be described thus: co-IP; 293T cells co-transfected with p65-His and 2C-Flag or p65-His and PCI-Flag (legend: p65, p50 and 2C); immunoprecipitated with anti-His; p50 detected by western blot. In general terms: In western blotting, separated proteins are transferred to a membrane and probed.

Results are given in words; binding and its absence hold for the method and conditions named. Binding seen in cells or lysates may run through a third protein. Some binding calls cover weakened binding; strength is not graded here.

In the case of p50 (from UniProt P19838 1-433), the binding result is recorded as “binds”.
